Test results published in patent US20070059829A1.
Results are given in words; binding and its absence hold for the method and conditions named. Binding seen in cells or lysates may run through a third protein. Some binding calls cover weakened binding; strength is not graded here. For some of these results: Sequences can lack the tags named with a protein.

Protein sequences, listed by entry. Tags and fused reporters are not part of them. Lines headed by an entry give the natural chain unless they say otherwise; changes in a name come on top. Residues count along the entry.
UniProt O75581, residues 20-1370: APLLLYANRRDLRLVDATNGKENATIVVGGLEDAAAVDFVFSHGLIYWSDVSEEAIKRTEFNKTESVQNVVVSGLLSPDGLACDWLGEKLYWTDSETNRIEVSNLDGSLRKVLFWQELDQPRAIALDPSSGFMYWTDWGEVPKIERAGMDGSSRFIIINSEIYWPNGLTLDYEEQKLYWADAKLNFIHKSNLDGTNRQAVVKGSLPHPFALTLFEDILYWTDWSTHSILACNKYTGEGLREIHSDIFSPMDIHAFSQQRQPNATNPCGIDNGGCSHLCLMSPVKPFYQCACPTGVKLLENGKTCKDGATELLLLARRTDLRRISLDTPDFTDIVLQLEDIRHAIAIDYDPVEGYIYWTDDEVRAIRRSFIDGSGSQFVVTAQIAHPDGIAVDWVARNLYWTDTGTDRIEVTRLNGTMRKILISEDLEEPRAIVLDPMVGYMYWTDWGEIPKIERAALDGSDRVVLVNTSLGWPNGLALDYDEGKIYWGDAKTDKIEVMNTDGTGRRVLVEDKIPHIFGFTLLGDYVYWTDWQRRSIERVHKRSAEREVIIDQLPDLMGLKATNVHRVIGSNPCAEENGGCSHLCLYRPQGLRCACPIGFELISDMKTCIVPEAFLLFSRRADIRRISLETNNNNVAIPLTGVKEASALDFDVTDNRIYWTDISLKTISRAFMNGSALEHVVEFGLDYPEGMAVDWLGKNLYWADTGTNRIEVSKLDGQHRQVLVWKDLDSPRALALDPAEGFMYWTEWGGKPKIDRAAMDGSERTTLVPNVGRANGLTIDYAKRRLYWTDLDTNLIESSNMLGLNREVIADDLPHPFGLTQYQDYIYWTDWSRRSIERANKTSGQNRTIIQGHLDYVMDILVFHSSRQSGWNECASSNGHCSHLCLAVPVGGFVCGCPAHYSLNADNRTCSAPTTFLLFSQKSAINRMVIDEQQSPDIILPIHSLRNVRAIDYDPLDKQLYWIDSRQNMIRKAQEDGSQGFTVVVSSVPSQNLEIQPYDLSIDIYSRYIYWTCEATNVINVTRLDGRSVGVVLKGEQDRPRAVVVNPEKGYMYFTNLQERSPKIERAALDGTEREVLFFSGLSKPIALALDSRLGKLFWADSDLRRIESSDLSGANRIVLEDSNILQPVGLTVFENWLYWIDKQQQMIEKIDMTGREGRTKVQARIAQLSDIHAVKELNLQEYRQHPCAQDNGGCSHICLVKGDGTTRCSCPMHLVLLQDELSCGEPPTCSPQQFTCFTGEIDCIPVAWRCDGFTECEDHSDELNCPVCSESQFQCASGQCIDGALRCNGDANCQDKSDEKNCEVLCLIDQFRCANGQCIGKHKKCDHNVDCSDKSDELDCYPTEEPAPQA
UniProt Q9Z132: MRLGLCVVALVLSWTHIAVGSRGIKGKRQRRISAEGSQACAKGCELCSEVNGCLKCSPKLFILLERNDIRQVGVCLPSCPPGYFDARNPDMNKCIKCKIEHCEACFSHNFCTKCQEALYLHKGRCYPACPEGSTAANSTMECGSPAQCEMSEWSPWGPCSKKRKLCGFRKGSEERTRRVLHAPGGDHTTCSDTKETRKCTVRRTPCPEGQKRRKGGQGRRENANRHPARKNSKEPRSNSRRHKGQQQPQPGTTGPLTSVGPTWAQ

What was measured:
[1] = molecular target: T1, human immunoglobin Fc fusion form of the cysteine-rich domain (CRD) of mouse Fzd8 (mouse; human) (UniProt Q61091); assay: cell-free pull-down (FIG. 6B legend)
T1 sequence (looked up): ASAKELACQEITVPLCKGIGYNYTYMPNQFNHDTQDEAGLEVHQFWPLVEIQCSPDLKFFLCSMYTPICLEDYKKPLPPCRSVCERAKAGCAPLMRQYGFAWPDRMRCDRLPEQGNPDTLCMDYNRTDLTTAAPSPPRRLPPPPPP

[2] = molecular target: human immunoglobin Fc fusion form of the extracellular domain of human LRP6 (human) (UniProt O75581); assay: cell-free pull-down (FIG. 6B legend)
[3] = molecular target: T1, human immunoglobin Fc fusion form of the cysteine-rich domain (CRD) of mouse Fzd8 (mouse; human); assay: cell-free pull-down on protein A-sepharose beads, western blot
[4] = molecular target: human immunoglobin Fc fusion form of the extracellular domain of human LRP6 (human) (UniProt O75581); assay: as above

Measured: binding

Histidine-tagged R-spondin1 protein (from UniProt Q9Z132 21-265) (ligand)
binds: all assays above
